One molecule from patent US20250163137A1 can be followed below.

Results are given in words; binding and its absence hold for the method and conditions named. Binding can be weak; no strength is given.

Assay [1] has as its target DR-70 (human). Kind of assay: summary of the working examples.
Assay [2] addresses DR-70 (human). Kind of assay: sandwich ELISA on serum.

B1: mAb 14G12-5 (antibody, V domains shown)
VH: EVQLVESGGGLVKPGGSLKLSCAASGFAFNAYDMSWVRQTPEKRLEWVAYISSSGDYTYYPDTVKGRFTVSRDNAKSTLYLHMGSLKSEDTAMYYCAVYYHYDEGLDYWGQGTALTVSS
VL: QIVLIQSPAIMSASPGEKVTMTCSASSSVNYMHWYQQKSGTSPKRWIYDTSKLASGVPARFSGSGSGTSYSLTISSMEAEDAATYYCQQWSSNPPTFGGGTKLEIKR
Take B1: the binding result in the assay with DR-70 (human) [1] and in the assay with DR-70 (human) [2] was “binds” throughout.
